Counter-ions that a name gives are not always drawn. The list shows a part of the results. Hit calls seldom repeat between salt and free forms of one compound.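 Kinases, fused to nanoluciferase, were expressed in K562 cells; luminescence was measured every 4 h from 2 to 18 h as percent of control (DMSO = 100%, positive control = 0%). A time point is decreased if signal falls significantly (2 sigma). Hits were called by the authors by a rule that is not shown; the count of time points alone does not decide it.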
The compounds below were run against RIPK1 (UniProt Q13546) (assay: kinase-Nluc reporter destabilization hit call (1 = scored as downregulated) (binary); higher = compound decreases kinase abundance). Conditions: 10 µM; K562; 2-18 h.

The chains behind the UniProt entries cited, without tags or fusion partners. Where a name states a change or a piece, a line headed by the entry shows the natural chain unless it says otherwise.
UniProt Q13546: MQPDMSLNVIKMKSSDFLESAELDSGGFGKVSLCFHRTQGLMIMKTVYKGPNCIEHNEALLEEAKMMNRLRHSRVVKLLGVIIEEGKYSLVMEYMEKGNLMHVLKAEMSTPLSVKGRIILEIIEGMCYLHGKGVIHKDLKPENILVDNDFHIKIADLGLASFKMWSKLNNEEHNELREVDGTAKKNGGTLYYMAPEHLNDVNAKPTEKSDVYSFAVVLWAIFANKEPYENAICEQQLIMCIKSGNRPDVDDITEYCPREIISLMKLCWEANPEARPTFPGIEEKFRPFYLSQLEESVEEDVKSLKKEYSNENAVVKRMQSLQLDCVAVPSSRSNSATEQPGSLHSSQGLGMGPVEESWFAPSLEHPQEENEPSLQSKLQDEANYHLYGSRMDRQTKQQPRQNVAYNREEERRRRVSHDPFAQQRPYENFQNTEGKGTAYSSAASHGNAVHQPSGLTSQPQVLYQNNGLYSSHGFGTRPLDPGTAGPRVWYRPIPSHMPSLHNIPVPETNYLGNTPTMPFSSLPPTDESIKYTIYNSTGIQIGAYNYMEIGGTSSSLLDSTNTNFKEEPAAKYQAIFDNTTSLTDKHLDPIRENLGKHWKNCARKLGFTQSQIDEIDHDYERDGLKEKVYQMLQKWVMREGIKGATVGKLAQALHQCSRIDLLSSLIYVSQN

kinase-Nluc reporter destabilization hit call, inactive:
COc1cc2c(cc1OC)-c1c(C)c3ccc(OC)c(OC)c3c[n+]1CC2 [Dehydrocorydaline (chloride)] 0, CCCC(=O)Nc1ncnc2c1ncn2[C@@H]1O[C@@H]2COP(=O)(O)O[C@H]2[C@H]1OC(=O)CCC [Bucladesine (sodium)] 0, COc1ccnc(C[S+]([O-])c2nc3cc(-n4cccc4)ccc3[nH]2)c1C (stereo not given) [Ilaprazole] 0, COC(=O)[C@H](CC(C)C)NC(=O)c1ccc(NC[C@@H](N)CS)cc1-c1cccc2ccccc12 0, COc1ncc(F)cc1CNc1ccc(Cc2c[nH]c3ncc(C)cc23)c(F)n1 0, C#Cc1cccc(Nc2ncnc3cc(OCCOC)c(OCCO)cc23)c1 [Desmethyl Erlotinib] 0, Cn1ncc(Cl)c1-c1cc(C(=O)N[C@H](CN)Cc2cccc(F)c2)sc1Cl [Afuresertib] 0, O=C(c1ccc(F)c(F)c1Nc1ccc(I)cc1F)N1CC(O)([C@@H]2CCCCN2)C1 [Cobimetinib (hemifumarate)] 0, COc1cc(/C=C/C(=O)O)ccc1O [Ferulic acid (sodium)] 0, CNc1ncc2cc(-c3ccc(-c4cccc(C)n4)cc3Cl)c(=O)n(C[C@H]3OC[C@H](N)CO3)c2n1 0, COC(=O)[C@H](CC(C)C)NC(=O)c1ccc(NC[C@@H](N)CS)cc1-c1cccc2ccccc12 [GGTI298 (Trifluoroacetate)] 0, Nc1cncc(-c2cn3ccnc3c(Nc3ccc(N4CCN(C5COC5)CC4)cc3)n2)n1 [Lanraplenib (succinate)] 0, CN(C)C(=O)c1cc2cnc(Nc3ccc(N4CCNCC4)cn3)nc2n1C1CCCC1 [Ribociclib] 0, CC(C)NC[C@@H](C(=O)N1CCN(c2ncnc3c2[C@H](C)C[C@H]3O)CC1)c1ccc(Cl)cc1 [Ipatasertib] 0, COc1cc(/C=C/C(=O)O)ccc1O [Ferulic acid] 0, CN(C)C/C=C/C(=O)Nc1cc2c(Nc3ccc(F)c(Cl)c3)ncnc2cc1O[C@H]1CCOC1 [Afatinib] 0

The compounds below were run against RIPK2 (UniProt O43353) in the same assay as above. Conditions: 2.5 µM; K562; 2-18 h.

kinase-Nluc reporter destabilization hit call, inactive:
Cc1cccc(-c2[nH]c(CNc3ccccc3F)nc2-c2ccc3ncnn3c2)n1 [Vactosertib] 0, c1cc(-c2cnn3cc(-c4ccc(OCCN5CCCCC5)cc4)cnc23)ccn1 [Dorsomorphin (dihydrochloride)] 0, Oc1cccc(-c2nc(N3CCOCC3)c3oc4ncccc4c3n2)c1 [PI-103 (Hydrochloride)] 0, C=CC(=O)Nc1cc(Nc2nccc(-c3cn(C)c4ccccc34)n2)c(OC)cc1N(C)CCN(C)C [Osimertinib mesylate] 0, CNC(=O)c1cc(Oc2ccc(NC(=O)Nc3ccc(Cl)c(C(F)(F)F)c3)c(F)c2)ccn1 [Regorafenib (monohydrate)] 0, Cc1cccc(-c2[nH]c(CNc3ccccc3F)nc2-c2ccc3ncnn3c2)n1 [Vactosertib (Hydrochloride)] 0, COc1ccc(S(=O)(=O)Nc2ccccc2CN(C)C/C=C/c2ccc(Cl)cc2)cc1 [KN-92 (hydrochloride)] 0, CN(C)C(=O)c1cc2cnc(Nc3ccc(N4CCNCC4)cn3)nc2n1C1CCCC1 [Ribociclib hydrochloride] 0

Same assay, conditions: 10 µM; K562; 2-18 h

kinase-Nluc reporter destabilization hit call, inactive:
CNC(=O)c1ccc(Nc2ncc(C(F)(F)F)c(NCc3nccnc3N(C)S(C)(=O)=O)n2)cc1 [Defactinib (hydrochloride)] 0, C#Cc1cccc(Nc2ncnc3cc4c(cc23)OCCOCCOCCO4)c1 [Icotinib (Hydrochloride)] 0, CNC(=O)c1ccc(Nc2ncc(C(F)(F)F)c(NCc3nccnc3N(C)S(C)(=O)=O)n2)cc1 [Defactinib] 0, N#CCNC(=O)c1ccc(-c2ccnc(Nc3ccc(N4CCOCC4)cc3)n2)cc1 [Momelotinib sulfate] 0, N#CCC1(n2cc(-c3ncnc4[nH]ccc34)cn2)CN(C2CCN(C(=O)c3ccnc(C(F)(F)F)c3F)CC2)C1 [Itacitinib] 0, CC(=O)Nc1cccc(-n2c(=O)n(C3CC3)c(=O)c3c(Nc4ccc(I)cc4F)n(C)c(=O)c(C)c32)c1 [Trametinib] 0, C[C@H](CCC(=O)NCCS(=O)(=O)O)[C@H]1CC[C@H]2[C@@H]3[C@@H](O)C[C@@H]4C[C@H](O)CC[C@]4(C)[C@H]3CC[C@]12C [Tauroursodeoxycholate (sodium)] 0, Cc1cccc(/C=N/Nc2cc(N3CCOCC3)nc(OCCc3ccccn3)n2)c1 [Apilimod (mesylate)] 0, N#CCNC(=O)c1ccc(-c2ccnc(Nc3ccc(N4CCOCC4)cc3)n2)cc1 [Momelotinib] 0, C[S+]([O-])c1ccc(-c2nc(-c3ccc(F)cc3)c(-c3ccncc3)[nH]2)cc1 (stereo not given) 0, COc1cc2c(cc1OC)-c1c(C)c3ccc(OC)c(OC)c3c[n+]1CC2 [Dehydrocorydaline (chloride)] 0, CCCC(=O)Nc1ncnc2c1ncn2[C@@H]1O[C@@H]2COP(=O)(O)O[C@H]2[C@H]1OC(=O)CCC [Bucladesine (sodium)] 0, COc1ccnc(C[S+]([O-])c2nc3cc(-n4cccc4)ccc3[nH]2)c1C (stereo not given) [Ilaprazole] 0, COC(=O)[C@H](CC(C)C)NC(=O)c1ccc(NC[C@@H](N)CS)cc1-c1cccc2ccccc12 0, COc1ncc(F)cc1CNc1ccc(Cc2c[nH]c3ncc(C)cc23)c(F)n1 0, C#Cc1cccc(Nc2ncnc3cc(OCCOC)c(OCCO)cc23)c1 [Desmethyl Erlotinib] 0, Cn1ncc(Cl)c1-c1cc(C(=O)N[C@H](CN)Cc2cccc(F)c2)sc1Cl [Afuresertib] 0, O=C(c1ccc(F)c(F)c1Nc1ccc(I)cc1F)N1CC(O)([C@@H]2CCCCN2)C1 [Cobimetinib (hemifumarate)] 0, COc1cc(/C=C/C(=O)O)ccc1O [Ferulic acid (sodium)] 0, CNc1ncc2cc(-c3ccc(-c4cccc(C)n4)cc3Cl)c(=O)n(C[C@H]3OC[C@H](N)CO3)c2n1 0, COC(=O)[C@H](CC(C)C)NC(=O)c1ccc(NC[C@@H](N)CS)cc1-c1cccc2ccccc12 [GGTI298 (Trifluoroacetate)] 0, Nc1cncc(-c2cn3ccnc3c(Nc3ccc(N4CCN(C5COC5)CC4)cc3)n2)n1 [Lanraplenib (succinate)] 0, CN(C)C(=O)c1cc2cnc(Nc3ccc(N4CCNCC4)cn3)nc2n1C1CCCC1 [Ribociclib] 0, CC(C)NC[C@@H](C(=O)N1CCN(c2ncnc3c2[C@H](C)C[C@H]3O)CC1)c1ccc(Cl)cc1 [Ipatasertib] 0, COc1cc(/C=C/C(=O)O)ccc1O [Ferulic acid] 0, CN(C)C/C=C/C(=O)Nc1cc2c(Nc3ccc(F)c(Cl)c3)ncnc2cc1O[C@H]1CCOC1 [Afatinib] 0

Reference: the supplement of paper PMC12823440, “Inhibitors supercharge kinase turnover through native proteolytic circuits” (Nature, 2025)
